Laboratory results: the supplement of paper PMC10060354, “Discovery of a small molecule ligand of FRS2 that inhibits invasion and tumor growth” (Cellular Oncology, 2022)

By UniProt entry, the sequences of proteins in these tests, tags left out. Where a name states a change or a piece, a line headed by the entry shows the natural chain unless it says otherwise.
UniProt O95248: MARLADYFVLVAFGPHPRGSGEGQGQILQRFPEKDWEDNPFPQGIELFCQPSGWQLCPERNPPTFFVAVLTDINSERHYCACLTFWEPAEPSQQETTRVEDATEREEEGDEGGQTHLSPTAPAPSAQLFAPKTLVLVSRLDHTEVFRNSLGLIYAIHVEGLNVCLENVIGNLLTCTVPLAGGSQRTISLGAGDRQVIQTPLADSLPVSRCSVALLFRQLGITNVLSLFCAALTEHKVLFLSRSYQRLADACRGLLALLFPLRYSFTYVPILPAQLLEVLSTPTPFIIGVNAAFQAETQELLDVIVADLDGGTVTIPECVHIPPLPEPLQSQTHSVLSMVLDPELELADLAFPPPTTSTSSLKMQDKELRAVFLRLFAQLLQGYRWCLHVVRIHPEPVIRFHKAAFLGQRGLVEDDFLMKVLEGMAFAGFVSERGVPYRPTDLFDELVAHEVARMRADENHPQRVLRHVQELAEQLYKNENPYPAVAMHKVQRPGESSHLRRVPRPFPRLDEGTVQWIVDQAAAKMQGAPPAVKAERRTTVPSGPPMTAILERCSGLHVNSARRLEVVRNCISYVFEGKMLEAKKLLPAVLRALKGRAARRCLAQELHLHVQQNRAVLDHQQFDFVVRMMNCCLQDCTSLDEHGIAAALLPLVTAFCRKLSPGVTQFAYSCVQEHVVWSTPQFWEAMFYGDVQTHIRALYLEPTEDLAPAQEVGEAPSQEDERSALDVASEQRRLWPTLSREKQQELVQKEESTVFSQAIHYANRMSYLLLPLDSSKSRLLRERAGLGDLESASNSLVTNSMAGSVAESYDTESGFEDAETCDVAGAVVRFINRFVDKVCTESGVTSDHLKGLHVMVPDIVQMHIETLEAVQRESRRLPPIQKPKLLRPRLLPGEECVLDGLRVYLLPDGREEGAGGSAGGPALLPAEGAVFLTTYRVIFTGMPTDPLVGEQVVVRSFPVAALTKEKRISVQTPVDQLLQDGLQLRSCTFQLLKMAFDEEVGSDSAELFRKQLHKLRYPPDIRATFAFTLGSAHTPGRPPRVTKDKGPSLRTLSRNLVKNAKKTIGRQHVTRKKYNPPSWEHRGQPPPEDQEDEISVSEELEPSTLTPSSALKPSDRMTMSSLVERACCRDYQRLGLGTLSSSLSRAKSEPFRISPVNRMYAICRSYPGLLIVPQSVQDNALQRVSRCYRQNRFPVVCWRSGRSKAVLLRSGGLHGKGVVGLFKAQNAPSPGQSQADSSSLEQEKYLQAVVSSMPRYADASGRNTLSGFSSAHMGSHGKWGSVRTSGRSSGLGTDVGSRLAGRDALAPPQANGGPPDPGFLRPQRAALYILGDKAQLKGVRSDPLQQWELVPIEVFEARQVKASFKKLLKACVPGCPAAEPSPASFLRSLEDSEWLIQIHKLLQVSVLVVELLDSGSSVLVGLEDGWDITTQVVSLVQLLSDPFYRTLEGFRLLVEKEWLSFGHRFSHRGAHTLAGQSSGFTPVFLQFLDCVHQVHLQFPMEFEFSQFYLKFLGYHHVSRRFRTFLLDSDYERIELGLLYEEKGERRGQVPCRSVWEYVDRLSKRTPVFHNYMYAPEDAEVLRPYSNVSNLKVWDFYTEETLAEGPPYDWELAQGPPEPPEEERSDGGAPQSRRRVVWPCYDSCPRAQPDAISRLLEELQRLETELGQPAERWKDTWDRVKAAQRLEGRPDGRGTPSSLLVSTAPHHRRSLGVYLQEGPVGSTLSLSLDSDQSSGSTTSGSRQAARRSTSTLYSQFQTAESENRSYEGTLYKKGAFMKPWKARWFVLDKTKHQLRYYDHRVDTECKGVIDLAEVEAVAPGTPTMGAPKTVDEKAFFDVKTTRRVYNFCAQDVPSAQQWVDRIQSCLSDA
UniProt Q14203, whole entry: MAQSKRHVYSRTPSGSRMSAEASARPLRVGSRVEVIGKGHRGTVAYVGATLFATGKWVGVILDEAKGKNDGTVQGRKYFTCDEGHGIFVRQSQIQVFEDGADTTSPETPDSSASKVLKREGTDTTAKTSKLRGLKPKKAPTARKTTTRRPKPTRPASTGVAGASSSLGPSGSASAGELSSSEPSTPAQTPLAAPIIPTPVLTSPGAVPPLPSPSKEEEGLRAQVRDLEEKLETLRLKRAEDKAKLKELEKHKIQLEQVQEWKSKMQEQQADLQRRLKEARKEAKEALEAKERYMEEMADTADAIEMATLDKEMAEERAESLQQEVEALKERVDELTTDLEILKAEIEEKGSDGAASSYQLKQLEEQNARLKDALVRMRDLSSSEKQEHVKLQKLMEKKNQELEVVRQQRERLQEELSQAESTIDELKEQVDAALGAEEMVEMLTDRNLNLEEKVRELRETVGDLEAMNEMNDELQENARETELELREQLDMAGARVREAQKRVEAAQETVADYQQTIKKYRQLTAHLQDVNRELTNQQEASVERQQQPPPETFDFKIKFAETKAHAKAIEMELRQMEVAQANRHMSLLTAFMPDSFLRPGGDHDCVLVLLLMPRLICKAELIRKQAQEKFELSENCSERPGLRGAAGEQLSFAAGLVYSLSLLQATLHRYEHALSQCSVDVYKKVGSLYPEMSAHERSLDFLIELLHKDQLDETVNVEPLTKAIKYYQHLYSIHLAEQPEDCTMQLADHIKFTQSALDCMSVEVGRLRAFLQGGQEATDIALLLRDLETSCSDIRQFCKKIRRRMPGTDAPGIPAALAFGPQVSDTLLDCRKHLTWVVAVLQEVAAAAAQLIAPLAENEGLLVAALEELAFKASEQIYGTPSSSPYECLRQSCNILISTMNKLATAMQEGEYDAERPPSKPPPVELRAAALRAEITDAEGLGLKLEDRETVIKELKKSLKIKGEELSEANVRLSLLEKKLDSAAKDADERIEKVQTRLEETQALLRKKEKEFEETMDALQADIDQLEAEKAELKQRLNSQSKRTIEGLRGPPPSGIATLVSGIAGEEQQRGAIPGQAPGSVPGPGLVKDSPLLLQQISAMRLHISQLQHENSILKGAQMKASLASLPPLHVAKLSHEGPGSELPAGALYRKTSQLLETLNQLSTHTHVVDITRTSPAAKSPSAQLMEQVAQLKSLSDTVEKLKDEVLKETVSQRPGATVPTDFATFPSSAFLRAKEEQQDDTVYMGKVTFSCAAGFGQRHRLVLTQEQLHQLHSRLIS
UniProt Q15417: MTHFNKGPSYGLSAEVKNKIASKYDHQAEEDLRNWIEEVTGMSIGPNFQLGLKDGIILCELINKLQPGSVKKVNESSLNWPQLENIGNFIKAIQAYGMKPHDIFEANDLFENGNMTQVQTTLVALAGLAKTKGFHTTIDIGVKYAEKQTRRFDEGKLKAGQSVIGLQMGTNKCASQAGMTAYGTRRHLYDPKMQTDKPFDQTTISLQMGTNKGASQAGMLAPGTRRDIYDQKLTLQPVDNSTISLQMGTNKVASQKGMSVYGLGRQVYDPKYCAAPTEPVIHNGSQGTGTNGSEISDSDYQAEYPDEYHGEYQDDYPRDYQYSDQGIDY
UniProt Q9NU02: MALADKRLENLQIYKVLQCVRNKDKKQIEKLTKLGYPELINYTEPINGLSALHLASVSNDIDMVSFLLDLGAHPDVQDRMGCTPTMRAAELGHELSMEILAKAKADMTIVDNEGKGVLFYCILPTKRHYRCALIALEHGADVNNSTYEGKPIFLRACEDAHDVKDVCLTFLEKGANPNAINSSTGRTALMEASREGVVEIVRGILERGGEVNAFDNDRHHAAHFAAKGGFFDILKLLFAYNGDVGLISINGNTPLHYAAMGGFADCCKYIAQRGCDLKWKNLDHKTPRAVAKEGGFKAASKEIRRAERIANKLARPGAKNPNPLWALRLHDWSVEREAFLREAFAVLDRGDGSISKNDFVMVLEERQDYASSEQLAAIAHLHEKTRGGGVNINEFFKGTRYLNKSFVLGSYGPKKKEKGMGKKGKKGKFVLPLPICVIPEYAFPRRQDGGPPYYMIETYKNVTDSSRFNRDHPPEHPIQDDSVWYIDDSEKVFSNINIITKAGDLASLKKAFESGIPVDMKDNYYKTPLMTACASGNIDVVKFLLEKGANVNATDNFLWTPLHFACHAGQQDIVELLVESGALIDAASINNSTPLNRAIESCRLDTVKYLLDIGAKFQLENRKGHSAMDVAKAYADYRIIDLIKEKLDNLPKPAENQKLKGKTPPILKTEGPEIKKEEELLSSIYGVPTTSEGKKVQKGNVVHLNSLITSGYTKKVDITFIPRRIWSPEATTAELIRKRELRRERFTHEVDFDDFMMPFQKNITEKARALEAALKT
UniProt P60604: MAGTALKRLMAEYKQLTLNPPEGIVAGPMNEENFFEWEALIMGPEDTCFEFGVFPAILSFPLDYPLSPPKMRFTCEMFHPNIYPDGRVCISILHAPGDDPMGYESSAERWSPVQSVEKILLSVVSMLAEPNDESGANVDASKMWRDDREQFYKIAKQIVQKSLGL
UniProt Q5T3I0: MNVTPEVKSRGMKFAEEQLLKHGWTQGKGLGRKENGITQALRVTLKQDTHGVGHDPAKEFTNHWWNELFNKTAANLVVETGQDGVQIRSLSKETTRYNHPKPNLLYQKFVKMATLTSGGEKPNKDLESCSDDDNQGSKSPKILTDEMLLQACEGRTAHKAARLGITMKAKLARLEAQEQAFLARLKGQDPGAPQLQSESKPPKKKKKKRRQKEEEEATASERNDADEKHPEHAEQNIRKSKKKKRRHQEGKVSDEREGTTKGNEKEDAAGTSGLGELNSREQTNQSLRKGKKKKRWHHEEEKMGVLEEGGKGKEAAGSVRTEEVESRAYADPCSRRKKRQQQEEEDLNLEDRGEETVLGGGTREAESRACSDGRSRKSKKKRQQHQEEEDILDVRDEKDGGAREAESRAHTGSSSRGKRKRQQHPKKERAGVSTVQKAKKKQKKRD
UniProt O95819: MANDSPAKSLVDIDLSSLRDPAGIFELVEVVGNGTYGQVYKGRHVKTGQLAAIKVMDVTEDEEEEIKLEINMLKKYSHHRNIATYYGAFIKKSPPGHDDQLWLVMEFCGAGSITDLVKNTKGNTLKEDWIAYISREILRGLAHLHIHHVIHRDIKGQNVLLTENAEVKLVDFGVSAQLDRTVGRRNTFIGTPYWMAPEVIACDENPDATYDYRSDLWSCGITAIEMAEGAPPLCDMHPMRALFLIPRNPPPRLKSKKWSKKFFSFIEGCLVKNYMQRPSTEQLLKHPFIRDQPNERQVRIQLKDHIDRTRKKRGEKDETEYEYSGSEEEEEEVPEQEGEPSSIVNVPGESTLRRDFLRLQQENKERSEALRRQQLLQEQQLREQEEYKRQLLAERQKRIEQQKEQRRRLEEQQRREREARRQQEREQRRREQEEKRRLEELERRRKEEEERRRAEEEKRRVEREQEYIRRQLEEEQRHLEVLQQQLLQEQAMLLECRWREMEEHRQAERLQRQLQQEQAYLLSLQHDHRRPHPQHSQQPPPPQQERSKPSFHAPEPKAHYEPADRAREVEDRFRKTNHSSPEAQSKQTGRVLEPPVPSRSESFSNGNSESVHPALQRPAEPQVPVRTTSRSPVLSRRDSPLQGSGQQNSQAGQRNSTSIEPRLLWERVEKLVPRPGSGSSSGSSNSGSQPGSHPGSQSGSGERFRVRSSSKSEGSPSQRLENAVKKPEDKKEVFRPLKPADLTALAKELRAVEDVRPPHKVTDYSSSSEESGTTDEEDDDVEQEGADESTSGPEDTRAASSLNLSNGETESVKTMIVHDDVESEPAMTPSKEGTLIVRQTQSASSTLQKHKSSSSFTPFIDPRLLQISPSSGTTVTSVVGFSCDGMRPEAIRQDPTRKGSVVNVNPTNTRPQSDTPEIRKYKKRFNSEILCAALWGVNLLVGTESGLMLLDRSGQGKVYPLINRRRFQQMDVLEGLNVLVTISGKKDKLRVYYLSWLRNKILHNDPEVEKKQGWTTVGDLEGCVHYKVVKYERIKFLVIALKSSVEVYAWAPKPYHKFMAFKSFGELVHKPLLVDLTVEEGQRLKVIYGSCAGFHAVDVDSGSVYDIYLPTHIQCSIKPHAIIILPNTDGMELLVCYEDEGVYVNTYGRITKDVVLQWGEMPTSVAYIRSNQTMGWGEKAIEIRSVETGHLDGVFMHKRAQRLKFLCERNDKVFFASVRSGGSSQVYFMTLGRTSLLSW
UniProt Q9Y606: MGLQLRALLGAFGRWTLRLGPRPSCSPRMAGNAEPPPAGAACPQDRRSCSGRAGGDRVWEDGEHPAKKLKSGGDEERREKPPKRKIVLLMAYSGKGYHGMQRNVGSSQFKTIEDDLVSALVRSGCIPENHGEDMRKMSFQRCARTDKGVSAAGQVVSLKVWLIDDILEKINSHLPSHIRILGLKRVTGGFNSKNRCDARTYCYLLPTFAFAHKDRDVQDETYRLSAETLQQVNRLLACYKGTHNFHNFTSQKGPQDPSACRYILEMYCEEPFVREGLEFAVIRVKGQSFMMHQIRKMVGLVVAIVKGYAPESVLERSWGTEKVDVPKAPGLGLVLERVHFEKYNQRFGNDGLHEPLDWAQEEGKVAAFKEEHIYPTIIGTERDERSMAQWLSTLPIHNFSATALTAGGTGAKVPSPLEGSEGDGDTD

Compound: [O-][N+](C(C1=C(C(O)=C2)NC(C(C=C3)=CC=C3Cl)C4C1C=CC4)=C2Cl)=O
Experiment: melting temperature shift (compound 7 minus DMSO); higher = compound stabilises the protein
Conditions: 10 µM
Protocol: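 Thermal proteome profiling (TMT mass spectrometry) in intact DAOY medulloblastoma cells or DAOY lysates treated with 10 µM compound 7 or DMSO, heated at 10 temperatures from 40.5 to 73.8 °C for 3 min. Melting curves were fitted with the Bioconductor TPP package, and the melting point difference between compound and vehicle is reported per protein (single curve per condition).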

[1] = system: intact DAOY cells, treatment time: 90 min, 37 °C
[2] = system: DAOY cell lysate, treatment time: 20 min, 4 °C

Target	melting temperature shift [1] [°C]	melting temperature shift [2] [°C]
UniProt Q8NFP7	0.95	–
TRIP6 (UniProt Q15654)	0.447	1.46
RPA3 (UniProt P35244)	0.849	-1.56
SBF1 (UniProt O95248)	–	-1.12
UniProt P61326	1.32	-0.0916
RING1 (UniProt Q06587)	0.362	-1.21
USP48 (UniProt Q86UV5)	0.148	0.00471
SLC38A10 (UniProt Q9HBR0)	-3.75	-3.29
UniProt O95837	-0.251	–
PSMD6 (UniProt Q15008)	-0.974	-0.729
SH3BGRL (UniProt O75368)	-1.44	-2.6
PHF14 (UniProt O94880)	1.7	0.963
SNX6 (UniProt Q9UNH7)	-1.58	-0.329
MED15 (UniProt Q96RN5)	1.39	0.588
OSGEP (UniProt Q9NPF4)	–	0.166
UniProt P63172	-0.577	0.358
EIF2B5 (UniProt Q13144)	-1.13	-0.513
UniProt Q8N302	–	3.75
TLDC1 (UniProt Q6P9B6)	1.41	1.09

Quoted at random: four entries already listed
Target	melting temperature shift [1] [°C]	melting temperature shift [2] [°C]
RPA3 (UniProt P35244)	0.849	-1.56
PHF14 (UniProt O94880)	1.7	0.963
SBF1 (UniProt O95248)	–	-1.12
USP48 (UniProt Q86UV5)	0.148	0.00471

Following part

Target	melting temperature shift [1] [°C]	melting temperature shift [2] [°C]
DNMT1 (UniProt P26358)	0.0293	0.161
UniProt Q8NB25	0.0277	–
HEATR5A (UniProt Q86XA9)	-0.192	0.711
DCTN1 (UniProt Q14203)	0.248	-0.755
UniProt P40306	0.639	1.83
UniProt Q15417	-0.473	-0.207
CWF19L1 (UniProt Q69YN2)	-0.0473	-0.094
UniProt Q9UBV7	–	2.12
TRIM5 (UniProt Q9C035)	-1.49	-1.25
TBCD (UniProt Q9BTW9)	-0.68	0.313
RPL10 (UniProt P27635)	-0.822	1.47
PSIP1 (UniProt O75475)	-1.3	0.783
SMYD2 (UniProt Q9NRG4)	–	-0.354
KIF2A (UniProt O00139)	-0.143	-1.25
ASAH1 (UniProt Q13510)	–	1.14
UniProt Q9NU02	-0.225	–
UBE2G2 (UniProt P60604)	0.757	-1.76
KRI1 (UniProt Q8N9T8)	–	0.659
NUDCD2 (UniProt Q8WVJ2)	-0.117	0.683

Target	melting temperature shift [1] [°C]	melting temperature shift [2] [°C]
TBC1D13 (UniProt Q9NVG8)	0.245	-1.42
C2CD5 (UniProt Q86YS7)	-2.32	-0.0662
KIFC1 (UniProt Q9BW19)	0.377	-1.4
SNTB1 (UniProt Q13884)	–	0.468
MICALL1 (UniProt Q8N3F8)	0.964	-1.34
CD58 (UniProt P19256)	–	-0.207
RDH11 (UniProt Q8TC12)	-0.635	1.81
GPATCH4 (UniProt Q5T3I0)	–	0.102
RNF213 (UniProt Q63HN8)	-0.695	-0.675
UniProt Q7Z4G1	1.3	-2.03
UniProt Q9Y2D2	-1.12	–
UniProt Q0VGL1	–	0.672
MAP4K4 (UniProt O95819)	-0.368	-0.099
UniProt Q96BT7	4.01	0.527
VPS25 (UniProt Q9BRG1)	-0.47	-0.714
GPX1 (UniProt P07203)	-1.93	0.156
ILF3 (UniProt Q12906)	0.259	0.12
PUS1 (UniProt Q9Y606)	-0.345	-0.689

Many values rest on one well or one pass, so single values are uncertain.
